These are yes or no findings as the source states them, for the method shown. Binding seen in cells or lysates may run through a third protein. These calls come from enrichment with a bait or labelling near it, and not all partners need be listed.
Biological target: Hu protein R (HuR RNA binding protein) (human (endogenous in Jurkat and primary human T cells)) (UniProt Q15717)
Test: affinity purification with mass spectrometry; HuR immunoprecipitate from Jurkat T cell lysates (anti-HuR antibody; isotype control MOPC-21), SDS-PAGE, gel slices by molecular weight range, trypsin digest, LC-MS/MS, Mascot search

The chains behind the UniProt entries cited, without tags or fusion partners.
UniProt Q15717: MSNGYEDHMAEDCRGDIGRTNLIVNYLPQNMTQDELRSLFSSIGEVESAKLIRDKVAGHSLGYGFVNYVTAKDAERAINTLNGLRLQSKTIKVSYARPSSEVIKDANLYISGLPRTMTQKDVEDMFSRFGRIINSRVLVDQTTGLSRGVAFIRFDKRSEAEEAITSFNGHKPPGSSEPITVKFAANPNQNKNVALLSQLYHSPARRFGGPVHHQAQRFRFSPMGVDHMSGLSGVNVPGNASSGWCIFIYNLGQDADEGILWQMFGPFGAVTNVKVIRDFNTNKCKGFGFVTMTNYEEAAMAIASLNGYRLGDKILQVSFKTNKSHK

- binding: binds
B1: fibrillarin (protein, UniProt P22087 1-321)
chain: MKPGFSPRGGGFGGRGGFGDRGGRGGRGGFGGGRGRGGGFRGRGRGGGGGGGGGGGGGRGGGGFHSGGNRGRGRGGKRGNQSGKNVMVEPHRHEGVFICRGKEDALVTKNLVPGESVYGEKRVSISEGDDKIEYRAWNPFRSKLAAAILGGVDQIHIKPGAKVLYLGAASGTTVSHVSDIVGPDGLVYAVEFSHRSGRDLINLAKKRTNIIPVIEDARHPHKYRMLIAMVDVIFADVAQPDQTRIVALNAHTFLRNGGHFVISIKANCIDSTASAEAVFASEVKKMQQENMKPQEQLTLEPYERDHAVVVGVYRPPPKVKN

— paper PMC6065199
